No constants are given. Whether binding was seen depends on the method and setting. Some results given as binding are weak or reduced against the parent protein; the word gives no strength.
How the values were obtained:
[1] = target: T1, minimal epitope peptide LPRQNH (SEQ ID NO:97) (human); assay: peptide ELISA on shortened peptides
T1 sequence (peptide): LPRQNH

The chains behind the UniProt entries cited, without tags or fusion partners. Residues count along the entry.
UniProt Q96D42, residues 21-364: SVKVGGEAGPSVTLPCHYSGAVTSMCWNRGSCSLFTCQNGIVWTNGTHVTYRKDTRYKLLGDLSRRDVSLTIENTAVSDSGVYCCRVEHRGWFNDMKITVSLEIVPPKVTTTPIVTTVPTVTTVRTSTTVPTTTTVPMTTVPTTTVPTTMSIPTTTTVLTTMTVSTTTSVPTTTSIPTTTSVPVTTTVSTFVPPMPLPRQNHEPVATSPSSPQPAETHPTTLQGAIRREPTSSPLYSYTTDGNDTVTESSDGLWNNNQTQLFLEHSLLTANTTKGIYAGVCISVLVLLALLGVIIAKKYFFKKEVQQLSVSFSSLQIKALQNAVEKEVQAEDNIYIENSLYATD

[2] = target: T2, TIM-1 peptide F) … (human); assay: ELISA on coated peptides
T2 sequence (peptide): PLPRQNHEPVAT

[3] = target: T3, TIM-1 peptide C) … (human); assay: ELISA on coated peptides
T3 sequence (peptide): PMPLPRQNHE

[4] = target: T4, TIM-1 peptide A) … (human); assay: ELISA on coated peptides
T4 sequence (peptide): PMPLPRQNHEPVAT

[5] = target: T5, TIM-1 peptide B) … (human); assay: ELISA on coated peptides
T5 sequence (peptide): PMPLPRQNHEPV

[6] = target: T4, TIM-1 peptide A) … (human); assay: ELISA on coated overlapping TIM-1 peptides
[7] = target: TIM-1 antigen, cell membrane-bound (on ACHN, CAKI-2, CAKI-1 renal cancer cells and polarized/activated human CD4+ T cells) (human) (UniProt Q96D42); assay: FACS on ACHN and CAKI-2 renal cancer cells
[8] = target: T6, synthetic peptide … (SEQ ID NO:100); assay: peptide ELISA, reactivity grade
T6 sequence (peptide): PMPLPAQNHE

[9] = target: T7, synthetic peptide … (SEQ ID NO:98); assay: peptide ELISA, reactivity grade
T7 sequence (peptide): PMPAPRQNHE

[10] = target: T8, synthetic peptide … (SEQ ID NO:101); assay: peptide ELISA, reactivity grade
T8 sequence (peptide): PMPLPRANHE

[11] = target: T9, synthetic peptide … (SEQ ID NO:103); assay: peptide ELISA, reactivity grade
T9 sequence (peptide): PMPLPRQNAE

[12] = target: T3, TIM-1 peptide C) … (human); assay: peptide ELISA, reactivity grade
[13] = target: T10, synthetic peptide SEQ ID NO:104 (printed PLPRQNHE) (human); assay: peptide ELISA, reactivity grade
T10 sequence (peptide): PLPRQNHE

[14] = target: T11, synthetic peptide SEQ ID NO:105 (printed LPRQNHE) (human); assay: peptide ELISA, reactivity grade
T11 sequence (peptide): LPRQNHE

Measured: binding

B1: anti-TIM-1 mAb 2.70 (antibody, V domains shown)
VH: QVQLVESGGGVVQPGRSLRLSCAASGFIFSRYGMHWVRQAPGKGLKWVAVIWYDGSNKLYADSVKGRFTISRDNSKNTLYLQMNSLRAEDTAVYYCARDYYDNSRHHWGFDYWGQGTLVTVSS
VL: DIVMTQTPLSLPVTPGEPASISCRSSRSLLDSDDGNTYLDWYLQKPGQSPQLLIYTLSYRASGVPDRFSGSGSGTDFTLKISRVEAEDVGVYYCMQRVEFPITFGQGTRLEIKR
binds: all assays above

From patent US20050084449A1
